Data published in publication PMC10975076, “Trypanocidal and Anti-Inflammatory Effects of Three ent-Kaurane Diterpenoids from Gymnocoronis spilanthoides var. subcordata (Asteraceae)” (Pharmaceutics, 2024).

Tested on: splenocytes obtained from BALB/c mice
Test: Cytotoxicity assay on splenocytes, propidium iodide flow cytometry
Type: cell-based
Conditions: selectivity index; for SI Amastigotes: ratio between CC50 and IC50 (amastigotes); for SI Epimastigotes: ratio between CC50 and IC50 (epimastigotes)
Protocol: The cytotoxicity of the isolated compounds was evaluated using splenocytes obtained from BALB/c mice. Primary cell cultures (1.5 × 10^5) were incubated with different concentrations of the isolated phytochemicals (5–200 μg/mL) in RPMI medium supplemented with 10% fetal bovine serum. After 48 h of incubation at 37 °C (5% CO2), the cells were harvested, washed once with PBS and stained with 2.5 μg/mL propidium iodide (PI) for 5 min at room temperature. Subsequently, cell death was assessed via flow cytometry using a BD FACSaria II cytometer. Cells incubated with DMSO were used as 100% viability control, and the death percentage was calculated according to the following formula: {1 − [(% PI^− cells treated)/(% PI^− cells of the viability control)] × 100}.

Row | Compound | SI Amastigotes | SI Epimastigotes
1 | C=C1C(=O)[C@@]23CC[C@@H]4[C@](C)(C(=O)O)CCC[C@@]4(C)[C@]2(O)[C@@H](O)C[C@@H]1C3 (single isomer, unassigned; ent-9) [Compound 1, ent-9α,11α-dihydroxy-15-oxo-kaur-16-en-19-oic acid] | 52.7 | 30.3
2 | C=C1C(=O)[C@@]23CC[C@H]4[C@@](C)(CCC[C@@]4(C)C(=O)O)[C@@H]2[C@@H](O)C[C@@H]1C3 (single isomer, unassigned; ent-11) [Compound 3, ent-11α-hydroxy-15-oxo-kaur-16-en-19-oic acid] | 0.2 | 3.1
3 | O=C(Cn1ccnc1[N+](=O)[O-])NCc1ccccc1 [Benznidazole, benznidazole, reference compound] | 42.4 | 19.6
4 | C[C@H]1C(=O)[C@@]23CC[C@H]4[C@@](C)(CCC[C@@]4(C)C(=O)O)[C@@H]2[C@@H](O)C[C@@H]1C3 [Compound 2, (16R)-ent-11α-hydroxy-15-oxokauran-19-oic acid] | 1.2 | 1.5
